Laboratory results taken from patent US20260015420A1.

Experiments:
Insulin [1] = test: developability ELISA on coated insulin
Insulin [2] = test: ELISA on coated insulin, OD450

B1: chimeric anti-CD47 m5F9G4, human IgG1null (antibody, V domains shown)
VH: QVQLQQPGAELVKPGASVMMSCKASGYTFTNYNMHWVKQTPGQGLEWIGTIYPGNDDTSYNQKFKDKATLTADKSSSAAYMQLSSLTSEDSAVYYCARGGYRAMDYWGQGTSVTVSS
VL: DVLMTQTPLSLPVSLGDQASISCRSSQSIVYSNGNTYLGWYLQKPGQSPKLLIYKVSNRFSGVPDRFSGSGSGTDFTLKISRVEAEDLGVYHCFQGSHVPYTFGGGTKVEIK
binding (Insulin [1]): no binding | binding (Insulin [2]): no binding (tested: 1 ug/ml)

Results are given in words; binding and its absence hold for the method and conditions named.
